The experiment deals with CEA (UniProt P06731). In words: CEA binding ELISA of culture media from transduced cell lines. (In an ELISA, binding on a coated surface is turned into a signal by an enzyme label.)

Sequences of proteins named here, by UniProt entry; tags and fusion partners are left off. Residues count along the entry.
UniProt P06731, residues 35-685: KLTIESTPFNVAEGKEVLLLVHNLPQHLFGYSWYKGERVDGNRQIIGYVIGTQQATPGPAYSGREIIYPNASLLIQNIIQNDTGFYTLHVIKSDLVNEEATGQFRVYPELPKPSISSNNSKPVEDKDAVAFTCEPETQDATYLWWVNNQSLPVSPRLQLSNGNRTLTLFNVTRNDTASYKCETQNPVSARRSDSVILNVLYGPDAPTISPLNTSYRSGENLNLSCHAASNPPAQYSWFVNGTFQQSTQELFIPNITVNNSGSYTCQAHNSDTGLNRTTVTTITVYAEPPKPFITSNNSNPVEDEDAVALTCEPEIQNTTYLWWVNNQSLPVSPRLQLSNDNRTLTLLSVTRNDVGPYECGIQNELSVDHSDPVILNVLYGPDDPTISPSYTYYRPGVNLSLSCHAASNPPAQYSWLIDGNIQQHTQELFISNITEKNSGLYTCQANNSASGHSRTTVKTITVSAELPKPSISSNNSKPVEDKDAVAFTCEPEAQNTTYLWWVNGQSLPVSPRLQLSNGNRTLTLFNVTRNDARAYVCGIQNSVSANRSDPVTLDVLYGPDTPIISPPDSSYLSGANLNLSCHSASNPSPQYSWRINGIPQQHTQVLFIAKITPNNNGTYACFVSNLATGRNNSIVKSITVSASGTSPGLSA

No constants are given. Whether binding was seen depends on the method and setting. Some results given as binding are weak or reduced against the parent protein; the word gives no strength.

B1: MN14 antibody (antibody, V domains shown)
VH: EVQLVESGGGVVQPGRSLRLSCSASGFDFTTYWMSWVRQAPGKGLEWIGEIHPDSSTINYAPSLKDRFTISRDNAKNTLFLQMDSLRPEDTGVYFCASLYFGFPWFAYWGQGTPVTVSS
VL: DIQLTQSPSSLSASVGDRVTITCKASQDVGTSVAWYQQKPGKAPKLLIYWTSTRHTGVPSRFSGSGSGTDFTFTISSLQPEDIATYYCQQYSLYRSFGQGTKVEIKR
B1: the binding result is given as “binds”.
